Article PMC2877795, “Laminin chain assembly is regulated by specific coiled-coil interactions” (Journal of Structural Biology, 2010)
These are yes or no findings as the source states them, for the method shown.

T1: β3γ2 complex of the recombinant mouse laminin coiled-coil fragments (mouse) (UniProt Q61087+Q61092)
T1 sequence 1: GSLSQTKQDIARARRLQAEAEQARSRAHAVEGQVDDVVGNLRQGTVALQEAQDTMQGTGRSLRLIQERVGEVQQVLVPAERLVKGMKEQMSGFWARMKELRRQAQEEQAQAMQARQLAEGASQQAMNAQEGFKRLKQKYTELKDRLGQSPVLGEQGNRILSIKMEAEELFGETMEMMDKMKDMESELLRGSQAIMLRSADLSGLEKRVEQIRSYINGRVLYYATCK
T1 sequence 2: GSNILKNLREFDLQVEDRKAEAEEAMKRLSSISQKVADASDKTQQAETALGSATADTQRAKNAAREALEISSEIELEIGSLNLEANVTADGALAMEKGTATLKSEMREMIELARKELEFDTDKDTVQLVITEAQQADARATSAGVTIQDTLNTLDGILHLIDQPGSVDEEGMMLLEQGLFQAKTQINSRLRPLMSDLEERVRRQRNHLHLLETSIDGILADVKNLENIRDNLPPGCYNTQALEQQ

T2: β1γ2 complex of the recombinant mouse laminin coiled-coil fragments (mouse) (UniProt P02469+Q61092)
T2 sequence 1: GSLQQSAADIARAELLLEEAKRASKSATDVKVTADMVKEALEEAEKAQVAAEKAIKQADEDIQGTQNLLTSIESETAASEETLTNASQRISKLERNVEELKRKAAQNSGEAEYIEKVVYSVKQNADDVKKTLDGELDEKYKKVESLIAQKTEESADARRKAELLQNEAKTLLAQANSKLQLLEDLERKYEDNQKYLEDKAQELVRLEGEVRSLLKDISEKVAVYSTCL
T2 sequence 2: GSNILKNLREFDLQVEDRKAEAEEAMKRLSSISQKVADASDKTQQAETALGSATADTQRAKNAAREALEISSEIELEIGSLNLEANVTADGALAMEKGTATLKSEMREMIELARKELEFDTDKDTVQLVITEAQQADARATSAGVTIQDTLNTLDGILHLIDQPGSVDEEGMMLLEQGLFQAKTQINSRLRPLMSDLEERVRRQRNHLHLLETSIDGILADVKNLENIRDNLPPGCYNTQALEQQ

T3: β2γ2 complex of the recombinant mouse laminin coiled-coil fragments (mouse) (UniProt Q61292+Q61092)
T3 sequence 1: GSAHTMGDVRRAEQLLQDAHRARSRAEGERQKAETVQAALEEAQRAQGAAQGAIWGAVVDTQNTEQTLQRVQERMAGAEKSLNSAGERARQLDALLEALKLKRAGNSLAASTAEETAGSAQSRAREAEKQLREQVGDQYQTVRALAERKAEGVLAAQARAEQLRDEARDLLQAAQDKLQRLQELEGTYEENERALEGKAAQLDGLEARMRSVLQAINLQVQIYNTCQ
T3 sequence 2: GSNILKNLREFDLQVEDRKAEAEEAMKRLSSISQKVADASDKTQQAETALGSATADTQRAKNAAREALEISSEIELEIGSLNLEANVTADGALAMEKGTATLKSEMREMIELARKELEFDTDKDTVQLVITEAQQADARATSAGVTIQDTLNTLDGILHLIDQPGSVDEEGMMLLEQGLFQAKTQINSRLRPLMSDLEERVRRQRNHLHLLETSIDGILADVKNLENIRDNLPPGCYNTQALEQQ

T4: β3 + γ1 mixture of the recombinant mouse laminin coiled-coil fragments (mouse) (UniProt Q61087+P02468)
T4 sequence 1: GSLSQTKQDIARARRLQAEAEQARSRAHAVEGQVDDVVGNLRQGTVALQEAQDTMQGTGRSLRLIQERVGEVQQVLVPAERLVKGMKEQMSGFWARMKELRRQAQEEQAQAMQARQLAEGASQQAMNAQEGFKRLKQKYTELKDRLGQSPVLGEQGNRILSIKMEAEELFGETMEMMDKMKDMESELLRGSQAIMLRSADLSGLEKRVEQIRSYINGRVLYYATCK
T4 sequence 2: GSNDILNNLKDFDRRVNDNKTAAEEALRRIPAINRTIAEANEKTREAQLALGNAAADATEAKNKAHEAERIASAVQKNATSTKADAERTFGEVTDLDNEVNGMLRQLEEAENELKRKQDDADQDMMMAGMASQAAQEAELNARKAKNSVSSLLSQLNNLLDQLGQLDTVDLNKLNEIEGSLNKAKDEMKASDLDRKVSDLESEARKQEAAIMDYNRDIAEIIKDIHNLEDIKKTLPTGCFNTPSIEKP

T5: β2γ3 complex of the recombinant mouse laminin coiled-coil fragments (mouse) (UniProt Q61292+Q9R0B6)
T5 sequence 1: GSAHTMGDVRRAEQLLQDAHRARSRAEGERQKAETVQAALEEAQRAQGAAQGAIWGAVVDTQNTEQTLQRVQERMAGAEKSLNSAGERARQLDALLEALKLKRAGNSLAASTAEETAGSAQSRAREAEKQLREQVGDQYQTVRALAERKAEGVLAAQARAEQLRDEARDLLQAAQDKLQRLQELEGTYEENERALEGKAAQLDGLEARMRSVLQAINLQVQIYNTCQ
T5 sequence 2: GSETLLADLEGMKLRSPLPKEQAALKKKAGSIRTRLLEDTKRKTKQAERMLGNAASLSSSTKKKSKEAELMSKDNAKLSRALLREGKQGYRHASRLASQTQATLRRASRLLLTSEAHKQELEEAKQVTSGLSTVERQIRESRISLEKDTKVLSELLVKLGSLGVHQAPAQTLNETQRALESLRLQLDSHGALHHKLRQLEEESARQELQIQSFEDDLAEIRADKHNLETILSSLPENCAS

T6: β3 + γ3 mixture of the recombinant mouse laminin coiled-coil fragments (mouse) (UniProt Q61087+Q9R0B6)
T6 sequence 1: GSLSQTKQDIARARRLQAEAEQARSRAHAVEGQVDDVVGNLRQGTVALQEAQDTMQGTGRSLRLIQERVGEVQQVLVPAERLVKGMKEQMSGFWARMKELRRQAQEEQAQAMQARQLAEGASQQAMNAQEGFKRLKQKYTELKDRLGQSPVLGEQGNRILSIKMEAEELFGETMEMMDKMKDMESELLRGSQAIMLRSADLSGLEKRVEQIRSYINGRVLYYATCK
T6 sequence 2: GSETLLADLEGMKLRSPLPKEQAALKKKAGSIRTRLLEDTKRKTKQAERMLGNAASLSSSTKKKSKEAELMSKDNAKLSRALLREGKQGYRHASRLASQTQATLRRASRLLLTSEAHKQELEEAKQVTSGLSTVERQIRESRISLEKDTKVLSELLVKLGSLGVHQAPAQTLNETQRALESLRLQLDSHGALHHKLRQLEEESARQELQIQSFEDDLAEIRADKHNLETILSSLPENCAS

T7: β1γ3 complex of the recombinant mouse laminin coiled-coil fragments (mouse) (UniProt P02469+Q9R0B6)
T7 sequence 1: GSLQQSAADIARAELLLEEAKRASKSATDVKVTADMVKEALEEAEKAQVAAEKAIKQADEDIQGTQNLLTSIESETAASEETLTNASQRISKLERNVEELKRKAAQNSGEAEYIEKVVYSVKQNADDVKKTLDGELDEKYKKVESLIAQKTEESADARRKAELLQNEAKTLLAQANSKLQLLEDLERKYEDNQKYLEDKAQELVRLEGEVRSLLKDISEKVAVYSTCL
T7 sequence 2: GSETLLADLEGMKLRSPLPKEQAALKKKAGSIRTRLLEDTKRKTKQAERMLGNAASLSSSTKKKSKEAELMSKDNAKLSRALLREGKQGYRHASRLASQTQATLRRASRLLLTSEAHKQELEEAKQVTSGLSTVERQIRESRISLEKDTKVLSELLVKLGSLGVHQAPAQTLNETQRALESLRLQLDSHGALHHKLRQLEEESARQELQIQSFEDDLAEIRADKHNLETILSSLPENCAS

T8: recombinant mouse laminin β3 chain C-terminal coiled-coil fragment (945–1168) (mouse) (UniProt Q61087)
T8 sequence: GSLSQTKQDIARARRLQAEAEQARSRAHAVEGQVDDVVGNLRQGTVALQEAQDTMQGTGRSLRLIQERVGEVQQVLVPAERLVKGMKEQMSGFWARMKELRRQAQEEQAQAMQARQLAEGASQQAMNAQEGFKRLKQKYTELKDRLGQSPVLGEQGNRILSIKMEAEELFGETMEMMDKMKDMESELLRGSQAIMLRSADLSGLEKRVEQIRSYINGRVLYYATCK


Columns and labels:
[1] = target: T1, β3γ2 complex of the recombinant mouse laminin coiled-coil fragments (mouse); assay: native gel or EMSA; mixtures of one α, one β and one γ chain fragment; 10% non-denaturing PAGE (acid gels for basic complexes); mixtures reduced, heated to 70 °C for 5 min and cooled; run overnight at 50 V, room temperature, no cooling; Coomassie; bands confirmed by in-gel trypsin digestion and mass spectrometry; both purified
[2] = target: T2, β1γ2 complex of the recombinant mouse laminin coiled-coil fragments (mouse); assay: as above
[3] = target: T3, β2γ2 complex of the recombinant mouse laminin coiled-coil fragments (mouse); assay: as above
[4] = target: T4, β3 + γ1 mixture of the recombinant mouse laminin coiled-coil fragments (mouse); assay: as above
[5] = target: T5, β2γ3 complex of the recombinant mouse laminin coiled-coil fragments (mouse); assay: as above
[6] = target: T6, β3 + γ3 mixture of the recombinant mouse laminin coiled-coil fragments (mouse); assay: as above
[7] = target: T7, β1γ3 complex of the recombinant mouse laminin coiled-coil fragments (mouse); assay: as above
[8] = target: T8, recombinant mouse laminin β3 chain C-terminal coiled-coil fragment (945–1168) (mouse); assay: native gel or EMSA; mixtures of one β and one γ chain fragment; 10% non-denaturing PAGE (acid gels for basic complexes); mixtures reduced, heated to 70 °C for 5 min and cooled; run overnight at 50 V; Coomassie; bands confirmed by in-gel trypsin digestion and mass spectrometry; both purified

binding [1] | binding [2] | binding [3] | binding [4] | binding [5] | binding [6] | binding [7] | binding [8] | Binder
no binding | no binding | no binding | no binding | no binding | no binding |  |  | recombinant mouse laminin α2 chain C-terminal coiled-coil fragment (1924–2145) (domain or fragment, two residues (GlySer) left from the protease recognition site after thrombin cleavage; laminin α2 chain, mouse, C-terminal coiled-coil fragment, residues 1924-2145 of the native chain (222 residues); source: E. coli JM109(DE3), purified (Ni2+-Sepharose, denaturing, 8 M urea), 6xHis tag removed by thrombin; not shown: 6xHis, N-terminal, cleaved; pPEP-T leader (short C-terminal fragment of the …)) GSYSNIKDYIDEAEKVAREAKELAQGATKLATSPQGLLKEDAKGSLQKSFRILNEAKKLANDVKGNHNDLNDLKTRLETADLRNSGLLGALNDTMDKLSAITNDTAAKLQAVKEKAREANDTAKAVLAQVKDLHQNLDGLKQNYNKLADSVAKTNAVVKDPSKNKIIADAGTSVRNLEQEADRLIDKLKPIKELEDNLKKNISEIKELINQARKQANSIKVSVS
no binding | no binding |  | no binding |  | no binding | no binding |  | recombinant mouse laminin α4 chain C-terminal coiled-coil fragment (616–842) (domain or fragment, two residues (GlySer) left from the protease recognition site after thrombin cleavage; laminin α4 chain, mouse, C-terminal coiled-coil fragment, residues 616-842 of the native chain (227 residues); source: E. coli JM109(DE3), purified (Ni2+-Sepharose, denaturing, 8 M urea), 6xHis tag removed by thrombin; not shown: 6xHis, N-terminal, cleaved; pPEP-T leader (short C-terminal fragment of the …)) GSASNVYENIANYVSEANETAELALNITDRIYDAVSGIDTQIIYHKDESDNLLNQARELQAKADSSNDEAVADTSRRVGGALWRKGALRDRLNDAVKQLQAAERGDAHQRLGQSKLFIEEANKTTAAVQQVTTPMANNLSNWSQNLQTFDSSAYNTAVDSARDAVRNLTEVVPQLLDQLRTVEQKRPASNISASIQRIRELIAQTRSVASKIQVSMMFDGQSAVEVHPK
no binding | no binding | no binding | no binding |  | no binding | no binding |  | recombinant mouse laminin α5 chain C-terminal coiled-coil fragment (2525–2748) (domain or fragment, two residues (GlySer) left from the protease recognition site after thrombin cleavage; laminin α5 chain, mouse, C-terminal coiled-coil fragment, residues 2525-2748 of the native chain (224 residues); source: E. coli JM109(DE3), purified (Ni2+-Sepharose, denaturing, 8 M urea), 6xHis tag removed by thrombin; not shown: 6xHis, N-terminal, cleaved) GSNAYSSILQAVQAAEDAAGQALRQASRTWEMVVQRGLAAGARQLLANSSALEETILGHQGRLGLAQGRLQAAGIQLHNVWARKNQLAAQIQEAQAMLAMDTSETSEKIAHAKAVAAEALSTATHVQSQLQGMQKNVERWQSQLGGLQGQDLSQVERDASSSVSTLEKTLPQLLAKLSRLENRGVHNASLALSANIGRVRKLIAQARSAASKVKVSMKFNGRSGVR
 |  |  |  |  |  |  | no binding | recombinant mouse laminin γ3 chain C-terminal coiled-coil fragment (1344–1581) (domain or fragment, UniProt Q9R0B6 1344-1581) GSETLLADLEGMKLRSPLPKEQAALKKKAGSIRTRLLEDTKRKTKQAERMLGNAASLSSSTKKKSKEAELMSKDNAKLSRALLREGKQGYRHASRLASQTQATLRRASRLLLTSEAHKQELEEAKQVTSGLSTVERQIRESRISLEKDTKVLSELLVKLGSLGVHQAPAQTLNETQRALESLRLQLDSHGALHHKLRQLEEESARQELQIQSFEDDLAEIRADKHNLETILSSLPENCAS
